These are yes or no findings as the source states them, for the method shown. Binding seen in cells or lysates may run through a third protein. Binding can be weak; no strength is given. Where a sequence is shown, tags or fusion partners need not be part of it.

In the test the target is T1, Flag-tagged D182A 48 kDa PTPN2 substrate-trapping mutant (human) (UniProt P17706).
T1 sequence: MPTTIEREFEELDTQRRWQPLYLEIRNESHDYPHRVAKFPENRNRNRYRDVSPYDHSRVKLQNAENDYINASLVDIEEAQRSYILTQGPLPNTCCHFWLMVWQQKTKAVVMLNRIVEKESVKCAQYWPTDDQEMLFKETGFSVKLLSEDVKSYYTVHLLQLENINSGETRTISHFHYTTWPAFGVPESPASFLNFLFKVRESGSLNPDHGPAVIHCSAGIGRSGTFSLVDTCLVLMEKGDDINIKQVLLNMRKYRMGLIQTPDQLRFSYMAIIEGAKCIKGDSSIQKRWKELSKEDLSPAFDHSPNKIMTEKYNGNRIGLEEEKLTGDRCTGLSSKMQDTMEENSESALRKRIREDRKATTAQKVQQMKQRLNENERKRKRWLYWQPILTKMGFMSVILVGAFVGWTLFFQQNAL
Kind of test: co-IP; Flag-tagged D182A PTPN2 precipitated with anti-FLAG antibodies coupled to agarose beads from whole cell lysates of transfected HEK-PAFR; cells stimulated with PAF (100 nM) or vehicle for indicated times; blots with anti-Akt, anti-PKD, anti-Flag.

With Akt (human (endogenous in HEK-293)), the binding result is on record as “binds”.

Turning to “protein kinase D (human (endogenous in HEK-293))”, the binding result was “binds”.

(Values after article PMC6593612.)
